Measured values published in the supplement of paper PMC10849652.
This is one part of the list.

Protein sequences, listed by entry. Tags and fused reporters are not part of them. Lines headed by an entry give the natural chain unless they say otherwise; changes in a name come on top.
UniProt Q96AK3: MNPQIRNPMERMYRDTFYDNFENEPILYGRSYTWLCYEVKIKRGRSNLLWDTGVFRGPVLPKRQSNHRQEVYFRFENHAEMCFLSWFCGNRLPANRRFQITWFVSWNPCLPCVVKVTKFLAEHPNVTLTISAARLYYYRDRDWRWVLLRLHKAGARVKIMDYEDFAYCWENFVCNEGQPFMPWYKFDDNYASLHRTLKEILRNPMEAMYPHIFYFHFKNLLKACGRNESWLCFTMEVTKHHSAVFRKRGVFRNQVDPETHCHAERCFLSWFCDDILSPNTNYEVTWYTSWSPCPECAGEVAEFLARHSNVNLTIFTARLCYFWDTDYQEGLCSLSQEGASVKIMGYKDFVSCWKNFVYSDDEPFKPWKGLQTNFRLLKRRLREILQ
UniProt Q9NRW3: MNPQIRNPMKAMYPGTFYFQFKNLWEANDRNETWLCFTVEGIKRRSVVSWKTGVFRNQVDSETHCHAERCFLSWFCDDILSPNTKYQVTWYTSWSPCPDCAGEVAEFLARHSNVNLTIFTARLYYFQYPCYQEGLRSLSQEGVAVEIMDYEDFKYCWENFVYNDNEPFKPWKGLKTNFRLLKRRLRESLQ
UniProt Q6ZSZ5: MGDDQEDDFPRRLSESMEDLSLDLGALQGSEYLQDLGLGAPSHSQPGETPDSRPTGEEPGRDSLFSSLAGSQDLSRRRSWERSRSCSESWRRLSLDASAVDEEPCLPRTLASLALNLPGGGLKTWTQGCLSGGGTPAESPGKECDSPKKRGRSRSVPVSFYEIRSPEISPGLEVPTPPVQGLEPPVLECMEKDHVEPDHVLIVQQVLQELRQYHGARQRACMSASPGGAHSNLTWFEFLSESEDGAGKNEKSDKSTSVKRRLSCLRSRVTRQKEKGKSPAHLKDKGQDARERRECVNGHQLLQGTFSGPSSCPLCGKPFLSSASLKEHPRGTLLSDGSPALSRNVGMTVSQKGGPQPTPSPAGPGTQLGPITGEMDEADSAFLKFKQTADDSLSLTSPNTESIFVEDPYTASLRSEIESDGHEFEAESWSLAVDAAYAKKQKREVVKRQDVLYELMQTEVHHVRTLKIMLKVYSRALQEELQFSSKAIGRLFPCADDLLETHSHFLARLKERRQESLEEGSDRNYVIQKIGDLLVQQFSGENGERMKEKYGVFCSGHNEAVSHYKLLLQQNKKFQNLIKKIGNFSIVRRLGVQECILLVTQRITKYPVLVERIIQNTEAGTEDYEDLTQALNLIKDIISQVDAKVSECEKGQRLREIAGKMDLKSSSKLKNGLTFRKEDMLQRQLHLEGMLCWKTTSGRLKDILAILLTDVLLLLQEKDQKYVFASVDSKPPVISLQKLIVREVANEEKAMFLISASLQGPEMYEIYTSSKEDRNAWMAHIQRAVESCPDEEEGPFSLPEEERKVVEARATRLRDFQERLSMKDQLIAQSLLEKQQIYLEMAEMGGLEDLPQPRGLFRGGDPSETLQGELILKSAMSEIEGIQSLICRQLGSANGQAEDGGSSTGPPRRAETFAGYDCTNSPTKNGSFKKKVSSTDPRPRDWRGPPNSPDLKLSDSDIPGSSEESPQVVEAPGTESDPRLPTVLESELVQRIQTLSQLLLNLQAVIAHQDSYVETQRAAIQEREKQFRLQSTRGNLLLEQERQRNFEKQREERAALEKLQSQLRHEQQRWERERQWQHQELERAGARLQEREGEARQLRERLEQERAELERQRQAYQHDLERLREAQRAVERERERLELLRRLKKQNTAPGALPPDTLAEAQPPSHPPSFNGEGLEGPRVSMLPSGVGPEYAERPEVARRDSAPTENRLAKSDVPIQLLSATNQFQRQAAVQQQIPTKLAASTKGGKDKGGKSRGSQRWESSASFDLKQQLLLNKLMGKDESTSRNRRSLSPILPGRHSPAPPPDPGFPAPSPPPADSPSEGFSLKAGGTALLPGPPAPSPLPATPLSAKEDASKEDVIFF
UniProt Q9NRY4: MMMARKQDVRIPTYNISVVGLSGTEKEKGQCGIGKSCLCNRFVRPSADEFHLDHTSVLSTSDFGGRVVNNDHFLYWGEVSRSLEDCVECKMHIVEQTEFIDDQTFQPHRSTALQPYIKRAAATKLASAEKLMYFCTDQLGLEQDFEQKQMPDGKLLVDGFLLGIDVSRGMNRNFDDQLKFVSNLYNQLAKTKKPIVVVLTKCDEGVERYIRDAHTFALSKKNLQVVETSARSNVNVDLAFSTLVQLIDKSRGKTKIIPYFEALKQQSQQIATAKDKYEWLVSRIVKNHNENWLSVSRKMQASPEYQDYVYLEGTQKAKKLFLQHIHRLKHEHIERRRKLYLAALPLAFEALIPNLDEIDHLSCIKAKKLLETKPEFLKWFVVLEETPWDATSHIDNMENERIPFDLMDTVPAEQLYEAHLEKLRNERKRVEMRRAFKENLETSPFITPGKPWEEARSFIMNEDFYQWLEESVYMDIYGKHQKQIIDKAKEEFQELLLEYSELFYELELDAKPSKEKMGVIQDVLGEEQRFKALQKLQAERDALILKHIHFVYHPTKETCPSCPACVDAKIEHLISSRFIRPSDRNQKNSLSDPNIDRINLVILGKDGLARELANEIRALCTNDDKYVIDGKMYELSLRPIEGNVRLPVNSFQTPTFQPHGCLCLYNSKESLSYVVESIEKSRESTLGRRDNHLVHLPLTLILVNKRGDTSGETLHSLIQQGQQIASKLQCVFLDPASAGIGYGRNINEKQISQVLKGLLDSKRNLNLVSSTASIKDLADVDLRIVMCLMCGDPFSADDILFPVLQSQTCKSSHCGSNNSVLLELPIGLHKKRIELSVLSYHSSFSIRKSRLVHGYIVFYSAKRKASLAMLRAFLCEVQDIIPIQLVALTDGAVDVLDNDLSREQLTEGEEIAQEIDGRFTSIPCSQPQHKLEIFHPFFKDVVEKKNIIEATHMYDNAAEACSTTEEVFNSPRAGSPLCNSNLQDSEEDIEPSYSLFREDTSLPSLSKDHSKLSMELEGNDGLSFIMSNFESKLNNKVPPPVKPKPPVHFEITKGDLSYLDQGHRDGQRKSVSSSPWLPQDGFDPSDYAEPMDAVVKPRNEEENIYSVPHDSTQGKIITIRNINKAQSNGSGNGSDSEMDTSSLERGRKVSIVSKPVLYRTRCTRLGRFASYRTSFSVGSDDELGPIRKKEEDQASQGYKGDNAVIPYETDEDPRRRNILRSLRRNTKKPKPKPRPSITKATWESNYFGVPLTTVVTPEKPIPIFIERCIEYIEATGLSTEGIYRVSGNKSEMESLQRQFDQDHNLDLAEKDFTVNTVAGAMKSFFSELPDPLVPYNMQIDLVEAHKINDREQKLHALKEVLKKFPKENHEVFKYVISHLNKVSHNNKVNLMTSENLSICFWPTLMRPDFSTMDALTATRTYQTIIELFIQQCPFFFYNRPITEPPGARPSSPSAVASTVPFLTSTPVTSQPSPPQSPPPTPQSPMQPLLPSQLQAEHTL
UniProt P56377: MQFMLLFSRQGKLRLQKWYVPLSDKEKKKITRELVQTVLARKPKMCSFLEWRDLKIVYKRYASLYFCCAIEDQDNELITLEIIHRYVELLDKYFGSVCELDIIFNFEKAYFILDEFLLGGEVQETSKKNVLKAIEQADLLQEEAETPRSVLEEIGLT
UniProt Q9NQW6: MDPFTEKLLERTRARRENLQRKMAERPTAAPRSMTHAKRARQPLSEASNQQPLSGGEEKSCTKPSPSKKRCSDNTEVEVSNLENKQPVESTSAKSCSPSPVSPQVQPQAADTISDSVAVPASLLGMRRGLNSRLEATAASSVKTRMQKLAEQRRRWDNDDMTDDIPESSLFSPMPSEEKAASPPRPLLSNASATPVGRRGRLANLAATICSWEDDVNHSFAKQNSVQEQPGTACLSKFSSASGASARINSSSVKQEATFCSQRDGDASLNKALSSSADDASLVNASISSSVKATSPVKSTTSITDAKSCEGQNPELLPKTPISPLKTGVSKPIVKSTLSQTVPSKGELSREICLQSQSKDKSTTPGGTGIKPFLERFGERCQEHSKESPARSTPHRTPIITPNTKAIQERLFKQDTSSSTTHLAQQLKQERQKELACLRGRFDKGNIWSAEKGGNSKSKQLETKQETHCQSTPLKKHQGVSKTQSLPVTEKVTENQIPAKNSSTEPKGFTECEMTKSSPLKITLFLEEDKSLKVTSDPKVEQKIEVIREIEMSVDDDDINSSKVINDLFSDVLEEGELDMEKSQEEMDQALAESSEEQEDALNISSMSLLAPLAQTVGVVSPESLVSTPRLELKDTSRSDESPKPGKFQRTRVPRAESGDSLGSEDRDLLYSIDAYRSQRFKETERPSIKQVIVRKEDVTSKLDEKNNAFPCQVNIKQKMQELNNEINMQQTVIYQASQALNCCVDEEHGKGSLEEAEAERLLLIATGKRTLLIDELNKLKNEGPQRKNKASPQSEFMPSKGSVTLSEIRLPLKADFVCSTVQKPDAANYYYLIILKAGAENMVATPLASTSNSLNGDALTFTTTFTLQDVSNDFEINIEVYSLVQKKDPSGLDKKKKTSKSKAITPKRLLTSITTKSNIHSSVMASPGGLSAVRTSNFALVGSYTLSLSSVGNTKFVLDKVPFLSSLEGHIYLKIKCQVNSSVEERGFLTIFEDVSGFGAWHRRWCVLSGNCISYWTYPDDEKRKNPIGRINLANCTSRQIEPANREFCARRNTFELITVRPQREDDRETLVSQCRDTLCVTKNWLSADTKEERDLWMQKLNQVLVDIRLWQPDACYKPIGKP
UniProt Q6P6B7: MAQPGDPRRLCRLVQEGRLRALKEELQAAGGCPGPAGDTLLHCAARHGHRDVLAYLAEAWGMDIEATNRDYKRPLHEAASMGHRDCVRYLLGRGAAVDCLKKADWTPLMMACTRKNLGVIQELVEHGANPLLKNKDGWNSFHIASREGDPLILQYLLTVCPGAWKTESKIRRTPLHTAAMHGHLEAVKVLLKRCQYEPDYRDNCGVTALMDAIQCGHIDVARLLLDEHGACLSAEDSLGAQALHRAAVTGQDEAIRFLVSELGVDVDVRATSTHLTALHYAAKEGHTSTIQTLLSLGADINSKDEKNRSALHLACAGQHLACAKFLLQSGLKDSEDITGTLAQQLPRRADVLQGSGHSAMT
UniProt O75843: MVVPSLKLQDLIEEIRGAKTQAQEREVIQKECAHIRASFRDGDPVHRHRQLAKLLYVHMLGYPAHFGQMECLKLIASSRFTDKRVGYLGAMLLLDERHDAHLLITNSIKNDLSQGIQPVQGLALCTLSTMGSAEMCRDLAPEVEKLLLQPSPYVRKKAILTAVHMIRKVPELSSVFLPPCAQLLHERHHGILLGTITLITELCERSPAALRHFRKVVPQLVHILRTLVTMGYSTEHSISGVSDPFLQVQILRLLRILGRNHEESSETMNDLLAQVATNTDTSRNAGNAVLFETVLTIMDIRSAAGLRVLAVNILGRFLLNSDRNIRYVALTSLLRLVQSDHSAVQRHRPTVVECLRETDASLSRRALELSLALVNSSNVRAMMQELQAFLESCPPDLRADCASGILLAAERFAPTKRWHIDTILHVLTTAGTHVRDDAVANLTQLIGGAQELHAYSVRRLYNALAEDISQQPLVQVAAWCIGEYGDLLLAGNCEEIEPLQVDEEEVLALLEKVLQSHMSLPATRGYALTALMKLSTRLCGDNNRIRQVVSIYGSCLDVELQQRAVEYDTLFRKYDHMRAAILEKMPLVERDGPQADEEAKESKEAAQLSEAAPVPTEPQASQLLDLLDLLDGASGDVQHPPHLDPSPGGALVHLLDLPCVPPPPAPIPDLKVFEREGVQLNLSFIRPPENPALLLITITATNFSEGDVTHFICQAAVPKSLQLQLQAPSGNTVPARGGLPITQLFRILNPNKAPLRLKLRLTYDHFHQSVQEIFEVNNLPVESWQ
UniProt Q9UH17: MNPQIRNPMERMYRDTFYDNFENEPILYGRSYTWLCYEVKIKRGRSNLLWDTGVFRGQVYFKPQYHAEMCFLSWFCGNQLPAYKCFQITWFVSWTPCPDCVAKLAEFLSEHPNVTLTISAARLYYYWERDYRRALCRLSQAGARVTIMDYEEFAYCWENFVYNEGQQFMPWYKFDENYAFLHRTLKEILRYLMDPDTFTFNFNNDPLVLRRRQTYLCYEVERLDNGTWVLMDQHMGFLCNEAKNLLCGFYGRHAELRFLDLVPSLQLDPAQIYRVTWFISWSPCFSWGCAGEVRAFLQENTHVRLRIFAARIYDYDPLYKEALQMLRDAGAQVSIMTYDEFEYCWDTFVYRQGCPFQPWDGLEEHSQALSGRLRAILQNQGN
UniProt P02655: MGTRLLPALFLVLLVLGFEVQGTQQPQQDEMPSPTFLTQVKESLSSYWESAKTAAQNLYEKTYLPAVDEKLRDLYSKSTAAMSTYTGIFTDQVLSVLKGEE

Experiments:
Test in all cases: log2 fold change, soluble protein after heating vs DMSO (PISA); higher = thermal stabilisation; K562 cells, 10 uM, 30 min; active = over 0.2 and 3.5 SD of the protein, either way, in both replicates (recomputed)
[1] = compound: C1=CC=C(C=C1)[C@H](COC2=CC3=C(C=C2)NC(=O)N3)NC(=O)C4=CC=CN(C4=O)CC5=CC(=C(C=C5)F)F
In short: (§1)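 Aliquots of K562 cells (2×10^6 cells/mL) treated with 10 μM compound for 30 min were heated for 3 min over 48°C-58°C. After pooling and extraction in PBS with 0.5% NP-40 at 4°C, soluble protein from a 21,000xg, 90 min spin was quantified by TMTpro 16plex LC-MS/MS with channel sums equalised. Thermal stability is expressed against control samples, from duplicates, as a log2 fold change.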

[2] = compound: CC1=C(SC2=C1C(=N[C@H](C3=NN=C(N32)C)CC(=O)N)C4=CC=C(C=C4)Cl)C
In short: as §1

[3] = compound: CC1=C2C(=CC=C1)N=C(N(C2=O)C3=CC=CC=C3C)CN4C=NC5=C(N=CN=C54)N
In short: as §1

[4] = compound: Cc1sc2c(c1C)C(c1ccc(Cl)cc1)=N[C@@H](CC(=O)OC(C)(C)C)c1nnc(C)n1-2
In short: as §1

[5] = compound: c1ccc([C@@H]2C[C@H]2NC2CCNCC2)cc1
In short: as §1

Measured: log2 fold change

ANKRD28 (UniProt O15084)
inactive: [1] -0.003 | [2] 0.053 | [3] 0.023 | [4] 0.004 | [5] -0.008

APOBEC3D (UniProt Q96AK3)
inactive: [1] 0.096 | [2] -0.09 | [3] -0.221 | [4] 0.022 | [5] 0.005

AP3M1 (UniProt Q9Y2T2)
inactive: [1] -0.051 | [2] 0.045 | [3] 0.036 | [4] -0.031 | [5] 0.016

Quoted at random: two records from the list
APOBEC3D (UniProt Q96AK3)
inactive: [1] 0.096 | [2] -0.09 | [3] -0.221 | [4] 0.022 | [5] 0.005

AP3M1 (UniProt Q9Y2T2)
inactive: [1] -0.051 | [2] 0.045 | [3] 0.036 | [4] -0.031 | [5] 0.016

(continued)

API5 (UniProt Q9BZZ5)
inactive: [1] 0.014 | [2] 0.059 | [3] -0.001 | [4] -0.02 | [5] -0.003

AP3B1 (UniProt O00203)
inactive: [1] -0.038 | [2] 0.034 | [3] 0.062 | [4] 0.001 | [5] -0.042

ANKFY1 isoform 4 (UniProt Q9P2R3)
inactive: [1] 0.093 | [2] 0.103 | [3] 0.101 | [4] 0.118 | [5] -0.122

APOBEC3C (UniProt Q9NRW3)
inactive: [1] 0.034 | [2] -0.062 | [3] -0.121 | [4] 0.108 | [5] 0.111

ANK1 isoform 14 (UniProt P16157)
inactive: [1] 0.024 | [2] -0.099 | [3] -0.031 | [4] 0.223 | [5] -0.102

ANAPC4 isoform 3 (UniProt Q9UJX5)
inactive: [1] 0.018 | [2] 0.025 | [3] 0.007 | [4] -0.032 | [5] 0.023

ARHGEF18 (UniProt Q6ZSZ5)
inactive: [1] -0.167 | [2] -0.039 | [3] -0.13 | [4] 0.019 | [5] -0.031

AP2A1 (UniProt O95782)
inactive: [1] -0.001 | [2] -0.021 | [3] -0.028 | [4] 0.047 | [5] -0.005

ANAPC16 (UniProt Q96DE5)
inactive: [1] -0.032 | [2] 0.066 | [3] 0.05 | [4] -0.137 | [5] -0.026

APH1A (UniProt Q96BI3)
inactive: [1] -0.015 | [2] 0.009 | [3] -0.21 | [4] -0.08 | [5] -0.153

ANKRD26 (UniProt Q9UPS8)
inactive: [2] -0.077 | [3] 0.039 | [4] -0.146 | [5] 0.034

ARHGAP35 (UniProt Q9NRY4)
inactive: [2] -0.022 | [3] 0.205 | [4] 0.085 | [5] 0.022

ARAP1 (UniProt Q96P48)
inactive: [1] -0.084 | [2] -0.054 | [4] 0.151 | [5] 0.058

ARID4B (UniProt Q4LE39)
inactive: [4] -0.116

APOA4 (UniProt P06727)
inactive: [1] 0.026 | [3] 0.156 | [4] 0.178

ANKRD36 (UniProt A6QL64)
inactive: [3] 0.054 | [4] 0.04

AP1S2 (UniProt P56377)
inactive: [1] -0.065 | [2] -0.112 | [5] 0.112

ANLN (UniProt Q9NQW6)
inactive: [1] 0.002 | [3] 0.325

ANKLE2 (UniProt Q86XL3)
inactive: [3] 0.02

ARHGAP21 (UniProt Q5T5U3)
inactive: [1] 0.142 | [2] 0.18 | [5] -0.201

ANKRD16 (UniProt Q6P6B7)
inactive: [1] 0.214 | [3] 0.264

AP1G2 (UniProt O75843)
inactive: [2] 0.015 | [5] -0.299

AQR (UniProt O60306)
inactive: [2] -0.051 | [3] 0.048 | [4] 0.058 | [5] 0.021

APOBEC3B (UniProt Q9UH17)
inactive: [2] -0.046 | [5] 0.146

ANKS1A (UniProt Q92625)
inactive: [1] -0.046 | [2] -0.108 | [4] 0.395 | [5] 0.185

ARHGEF12 (UniProt Q9NZN5)
inactive: [1] -0.318 | [3] -0.128 | [4] 0.015

APOC2 (UniProt P02655)
inactive: [2] 0.08 | [3] 0.235 | [5] -0.254
